Our source for the binding values is paper PMC11447256.

Results are given in words; binding and its absence hold for the method and conditions named. In cells and extracts the contact can be indirect. Some binding calls cover weakened binding; strength is not graded here.

Assay [1] deals with T1, apoptotic chromatin condensation inducer in the nucleus (human (endogenous in A549)) (UniProt Q9UKV3).
T1 sequence: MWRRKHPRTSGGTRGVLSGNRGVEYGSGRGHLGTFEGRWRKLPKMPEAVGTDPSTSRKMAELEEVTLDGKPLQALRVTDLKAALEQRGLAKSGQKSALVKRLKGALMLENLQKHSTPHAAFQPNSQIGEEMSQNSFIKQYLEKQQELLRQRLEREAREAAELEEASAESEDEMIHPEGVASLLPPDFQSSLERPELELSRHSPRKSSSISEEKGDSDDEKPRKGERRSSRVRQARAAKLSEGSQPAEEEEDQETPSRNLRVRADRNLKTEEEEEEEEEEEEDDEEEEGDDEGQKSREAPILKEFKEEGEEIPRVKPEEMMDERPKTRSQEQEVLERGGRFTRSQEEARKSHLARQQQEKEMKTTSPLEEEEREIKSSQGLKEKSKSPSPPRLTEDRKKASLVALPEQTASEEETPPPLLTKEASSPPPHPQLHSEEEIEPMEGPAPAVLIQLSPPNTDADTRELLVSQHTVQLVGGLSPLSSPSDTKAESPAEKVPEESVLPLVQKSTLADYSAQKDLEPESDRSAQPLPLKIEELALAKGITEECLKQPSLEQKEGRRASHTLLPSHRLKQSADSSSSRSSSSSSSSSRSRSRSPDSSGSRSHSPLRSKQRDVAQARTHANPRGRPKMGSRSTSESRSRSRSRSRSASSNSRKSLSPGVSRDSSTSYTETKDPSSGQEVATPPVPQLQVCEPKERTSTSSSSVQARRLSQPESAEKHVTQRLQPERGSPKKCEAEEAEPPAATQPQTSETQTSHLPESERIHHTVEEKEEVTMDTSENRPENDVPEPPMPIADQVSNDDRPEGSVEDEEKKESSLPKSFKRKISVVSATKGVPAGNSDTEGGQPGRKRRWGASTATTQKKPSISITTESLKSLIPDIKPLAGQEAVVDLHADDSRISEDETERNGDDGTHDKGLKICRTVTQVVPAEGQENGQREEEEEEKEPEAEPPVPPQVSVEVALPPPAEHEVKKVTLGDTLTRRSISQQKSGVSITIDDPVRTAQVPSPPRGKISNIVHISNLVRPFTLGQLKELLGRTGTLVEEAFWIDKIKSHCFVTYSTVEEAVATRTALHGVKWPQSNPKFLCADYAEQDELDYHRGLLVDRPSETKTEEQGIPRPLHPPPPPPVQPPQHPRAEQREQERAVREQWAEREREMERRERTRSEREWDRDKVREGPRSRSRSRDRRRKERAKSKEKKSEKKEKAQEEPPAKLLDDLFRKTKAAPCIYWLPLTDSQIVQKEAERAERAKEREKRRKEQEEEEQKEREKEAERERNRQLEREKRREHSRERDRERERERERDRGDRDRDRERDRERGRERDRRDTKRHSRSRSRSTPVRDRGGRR
In words: cross-linking; in situ XL-MS; A549 cells fixed with 4% formaldehyde (10 min, 25 °C), permeabilized with 0.1% Triton X-100, one 1 mM PhoX treatment (30 min, PBS pH 7.4, 25 °C); Fe-NTA enrichment, high-pH fractionation, LC-MS/MS, pLink 2, 5% FDR.

Assay [2] concerns the target T1, apoptotic chromatin condensation inducer in the nucleus (human (endogenous in A549)). In words: cross-linking; in situ XL-MS; A549 cells fixed with 4% formaldehyde (10 min, 25 °C), permeabilized with 0.1% Triton X-100, three sequential 1 mM PhoX treatments (30 min each, PBS pH 7.4, 25 °C); Fe-NTA enrichment, high-pH fractionation, LC-MS/MS, pLink 2, 5% FDR.

B1: apoptosis inhibitor 5 (protein, UniProt Q9BZZ5 1-524)
chain: MPTVEELYRNYGILADATEQVGQHKDAYQVILDGVKGGTKEKRLAAQFIPKFFKHFPELADSAINAQLDLCEDEDVSIRRQAIKELPQFATGENLPRVADILTQLLQTDDSAEFNLVNNALLSIFKMDAKGTLGGLFSQILQGEDIVRERAIKFLSTKLKTLPDEVLTKEVEELILTESKKVLEDVTGEEFVLFMKILSGLKSLQTVSGRQQLVELVAEQADLEQTFNPSDPDCVDRLLQCTRQAVPLFSKNVHSTRFVTYFCEQVLPNLGTLTTPVEGLDIQLEVLKLLAEMSSFCGDMEKLETNLRKLFDKLLEYMPLPPEEAENGENAGNEEPKLQFSYVECLLYSFHQLGRKLPDFLTAKLNAEKLKDFKIRLQYFARGLQVYIRQLRLALQGKTGEALKTEENKIKVVALKITNNINVLIKDLFHIPPSYKSTVTLSWKPVQKVEIGQKRASEDTTSGSPPKKSSAGPKRDARQIYNPPSGKYSSNLGNFNYEQRGAFRGSRGGRGWGTRGNRSRGRLY
In the case of B1, the binding result in assay [1] and in assay [2] was “binds” throughout.
